1 sequence from US20180187207 can be followed below.

Chains of the proteins cited; added tags and fusions are not shown. Chains listed by the source or under a name are the forms on record and can include a tag or linker.
GRP7 and/or GRP8 (antibody recognizes both) (Arabidopsis thaliana), one chain, as listed by the source: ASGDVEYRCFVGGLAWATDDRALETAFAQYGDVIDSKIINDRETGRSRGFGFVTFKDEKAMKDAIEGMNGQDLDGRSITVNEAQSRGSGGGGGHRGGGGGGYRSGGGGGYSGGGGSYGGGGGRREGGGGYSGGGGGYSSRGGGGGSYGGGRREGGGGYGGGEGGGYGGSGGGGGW

For at least one entry, the source does not settle the construct or the ends of the probe. At least one result comes from cells or an extract, where the contact may be indirect.

The subject of the series is GRP7 and/or GRP8 (antibody recognizes both) (Arabidopsis thaliana). Put plainly: pull-down. Conditions: RIP-qPCR positive control, significant over IgG; protein in cells; protein details: native, formaldehyde-crosslinked roots.

In the case of “AACCCUAGUUAUUACGUCACACCUGUUCUAUAAAUUAAGGCUGCGUCUUAUCACCUCAAAUCACAUAAGUCUCUCUCUUACAUUUUGAAACCCUAAUUUCUCUUCUUUUCCCCAAAAAAAAAUGUCUGAAGUUGAGUACCGGUGCUUUGUCGGCGGCCUUGCCUGGGCCACCAAUGAUGAAGAUCUUCAAAGGACGUUCUCACAGUUCGGCGACGUUAUCGAUUCUAAGAUCAUUAACGACCGCGAGAGUGGAAGAUCAAGGGGAUUCGGAUUCGUCACCUUCAAGGACGAGAAAGCCAUGAGGGAUGCGAUUGAAGAGAUGAACGGUAAAGAGCUCGAUGGACGUGUCAUCACCGUGAACGAGGCUCAGUCGAGAGGUAGCGGCGGUGGCGGAGGAGGCCGUGGUGGAAGCGGUGGUGGUUACCGCAGCGGAGGCGGUGGUGGAUACUCAGGAGGCGGUGGCGGCGGAUACUCAGGAGGAGGCGGUGGUGGUUACGAGAGACGUAGCGGAGGUUACGGAUCUGGUGGAGGCGGUGGUGGCCGAGGAUACGGUGGUGGUGGACGCCGUGAGGGAGGUGGCUACGGAGGCGGUGAUGGUGGAAGUUACGGAGGCGGUGGUGGCGGCUGGUAAUCAAAGAUAGAGUUGUUUGCGUGCUGCUGCUCUGUUUUUGGUUUAGAUUUGGUUUUGUGUCACCACUUCUGGUUUGGUUAUCGUUCGUUUGGUUUACUUUUUUGAUGAAACAGUUUCGUUUAAGUCUUCUUUGUCUGGAACGAAAUGUUAAUUCGCGUGUUGUUUACUAAAUUUAUAACGUUUCCUUUUAACCAGAUUCGAGAUUUUCCCUCAAAUAAUUUAUCUUGUUAGACACAUGUAUUUAAUCGAACAGCAGCUAAAGGAUUC [GRP8 transcript]”, the binding result was “binds”.
